Laboratory results reported in patent US20260192003A1, “CHELATING COMPOUNDS AND METHODS OF USES THEREOF” (THE REGENTS OF THE UNIVERSITY OF CALIFORNIA, priority 2023, published 2026).
At least one structure is not confirmed: it was looked up by name or label, or the drawing left a doubt.

Assay: Arsenazo III dye displacement, indirect kinetics of Th^4+ complexation
Type: physicochemical
Conditions: calculated for 10 μM each of metal and ligand
Protocol: Another important aspect of chelators for radiopharmaceutical applications is the kinetics of complexation with the radiometal of interest. A ligand must be able to bind the radioactive metal ion rapidly and completely to minimize the extent of radioactive decay before administration in vivo. […] To access the suitability of DOTHOPO and MeDOTHOPO in this context, we sought to determine the kinetics of Th^4+ complexation of these chelators in aqueous solution at 25° C. […] Following literature precedent,^35 the relative rate of metal complexation by these ligands could be studied indirectly using the dye Arsenazo III, which forms highly colored complexes with Th^4+ with a prominent absorbance band at 669 nm.^92 The addition of excess chelator to solutions of Th^4+ and Arsenazo III caused the dye to be displaced and the formation of the metal-chelator complex could be monitored by the disappearance of the absorbance features corresponding to the metal-dye compound (FIG. 4).
The aim of these experiments was to determine a second-order rate constant for the complexation reaction of Th^4+ by DOTHOPO and MeDOTHOPO. […] For comparison purposes, the second-order rate constant of complexation was calculated using the reaction of 15 equiv. of ligand relative to metal (Table 4, see SI for details). The [ThL] (L=DOTHOPO, MeDOTHOPO) complexes form rapidly in aqueous solution. The second-order halflives, calculated for 10 μM each of metal and ligand, are 30 and 18 min for DOTHOPO and MeDOTHOPO respectively. The faster complexation kinetics of MeDOTHOPO compared to DOTHOPO can likely be attributed to the increased flexibility of the ligand.

Row | SMILES | t1/2 (second-order half-life)
1 | O=C(c1cccc(=O)n1O)N1CCN(C(=O)c2cccc(=O)n2O)CCN(C(=O)c2cccc(=O)n2O)CCN(C(=O)c2cccc(=O)n2O)CC1 [DOTHOPO] | 30 min
2 | O=C(O)CN(CCN(CC(=O)O)CC(=O)O)CCN(CC(=O)O)CC(=O)O [DTPA, reference compound] | 211 min
3 | O=c1cccc(CN2CCN(Cc3cccc(=O)n3O)CCN(Cc3cccc(=O)n3O)CCN(Cc3cccc(=O)n3O)CC2)n1O [MeDOTHOPO, 1,4,7,10-tetraazacyclododecane-1,4,7,10-tetra(methylene)tetrakis(1-hydroxy-2-pyridinone)] | 18 min
